Results as given in PubChem BioAssay AID662 (National Center for Advancing Translational Sciences (NCATS), 2007).
The list shows a part of the results. Further columns of the screen follow, without active or inactive calls. Compounds called inactive in the main read-out are mostly missing here. Potencies come from curve fits of mixed quality, noted in brackets.

Test: Cell signaling CRE-BLA (Fsk stim)
Details: CHO CRE-bla reporter (cAMP response element driving beta-lactamase), forskolin EC10, beta-lactamase ratio; measured here: 460 nm blue channel
In short: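 The 460nm/530nm emission ratio after CCF4 loading defined %Activity, from which AC50 values were obtained. CRE-bla CHO cells received compound dilution series together with an EC10 level of NKH 477 for 3 hours at 37 degrees Celsius.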

Row | Structure (SMILES) | AC50
1 | COc1ccc(Oc2ncc3nc(-c4cccs4)c(=O)n(-c4ccccc4)c3n2)cc1 | 2.51 µM [rising, full curve]
2 | Clc1cccc(-c2nn3c(Cn4cnc5ccccc54)nnc3s2)c1 | 20 µM [rising, single point]
3 | N#Cc1cccc(-c2nccc(NCc3cccs3)n2)c1 | 5.01 µM [rising, partial curve]
4 | CCCCOc1cccc(OCCCC)c1C(=O)Nc1cc(C)on1 | 12.6 µM [falling, single point]
5 | Cc1ccccc1-c1nc(N2CCN(C)CC2)c2ccccc2n1 | 10 µM [rising, partial curve]
6 | COc1ccccc1NC(=O)Cn1nnc(-c2ccccc2NC(=O)c2ccco2)n1 | 15.8 µM [rising, partial curve]
7 | O=C(OCCN1CCCCC1)c1ccc(O)cc1 | 1 µM [rising, single point]
8 | CCNc1ncc2nc(C)c(=O)n(CCOC)c2n1 | 12.6 µM [rising, partial curve]
9 | COC(=O)CSc1ccc2nnc(-c3ccc(OC)c(OC)c3)n2n1 | 7.94 µM [rising, partial curve]
10 | CC(=O)c1c(C)n(-c2ccc(N(C)C)cc2)c2ccc(OCC(N)=O)cc12 | 12.6 µM [rising, partial curve]
11 | Oc1cc(CN2COc3ccccc32)c(O)cc1CNC1CCCCC1 | 5.01 µM [rising, single point]
12 | Cc1ccc(Cn2ccc(NC(=O)c3cc(C(C)C)on3)n2)cc1 | 12.6 µM [falling, partial curve]
13 | Cn1c(=O)c2c(nc(Br)n2CCCc2ccccc2)n(C)c1=O | 12.6 µM [rising, partial curve]
14 | CCC1(CC)C(=O)N(C)C(=O)NC1=NCc1ccccc1 | 3.98 µM [falling, partial curve, poor fit]
15 | Cc1ccc(C(=O)Nc2ccc(S(=O)(=O)N3CCc4ccccc4C3)cc2)o1 | 7.94 µM [falling, partial curve]
16 | OCCn1c(SCCOc2ccccc2F)nc2ccccc21 | 0.00398 µM [falling, partial curve, poor fit]
17 | O=C(CN1CCN(c2nc(-c3ccc(F)cc3)cs2)CC1)Nc1ccc2c(c1)OCO2 | 6.31 µM [falling, partial curve, poor fit]
18 | CCCCC(=O)Nc1nc2ccc3nc(C)sc3c2s1 | 12.6 µM [rising, partial curve]
19 | O=C(O)C1=CCCNC1 | 31.6 µM [falling, single point]
20 | CCC(=O)N1CCc2cc(S(=O)(=O)CCC(=O)NCc3ccc4c(c3)OCO4)ccc21 | 15.8 µM [rising, partial curve]
21 | Cc1nc(SCc2c(F)cccc2Cl)c2c(=O)n(C)c(=O)n(C)c2n1 | 2 µM [rising, full curve]
22 | CC1CCN(CCC(=O)N2CCCc3c2c(=O)oc2ccc(O)cc32)CC1 | 10 µM [falling, single point]

Copied from above, entries 21–22
Row | Structure (SMILES) | AC50
21 | Cc1nc(SCc2c(F)cccc2Cl)c2c(=O)n(C)c(=O)n(C)c2n1 | 2 µM [rising, full curve]
22 | CC1CCN(CCC(=O)N2CCCc3c2c(=O)oc2ccc(O)cc32)CC1 | 10 µM [falling, single point]

Following part.

Row | Structure (SMILES) | AC50
23 | COc1ccc(C2=CC(c3ccc(F)cc3)n3nnnc3N2)cc1 (stereo not drawn) | 0.00316 µM [falling, full curve, poor fit]
24 | CCOc1ccc(S(=O)(=O)Nc2cc(OC)ccc2OC)cc1 | 6.31 µM [rising, partial curve]
25 | CN1C(=O)CC(N2CCN(CCN=CC3=C(O)CC(C)(C)CC3=O)CC2)C1=O (stereo not drawn) | 0.1 µM [falling, full curve]
26 | COC(=O)c1oc2ccc(Br)cc2c1-n1cccc1 | 25.1 µM [rising, single point]
27 | COc1cc2c(cc1OC)-c1cc(NC3CCCC3)nc(=O)n1CC2 | 7.94 µM [rising, partial curve]
28 | CCOC(=O)Cn1nnnc1C(CC)N(Cc1cc2ccc(C)cc2[nH]c1=O)C1CCCC1 (stereo not drawn) | 0.398 µM [falling, partial curve]
29 | Cc1cc(=O)n2nc(N3CCCC3C(=O)NCc3ccccn3)sc2n1 (stereo not drawn) | 0.0251 µM [falling, full curve, poor fit]
30 | COc1cc(OC)cc(C(=O)Nc2ccc3c(c2)COC3=O)c1 | 15.8 µM [rising, single point]
31 | COc1cc2c(cc1NC(=O)Cn1cnc3c1c(=O)n(C)c(=O)n3C)oc1ccccc12 | 15.8 µM [rising, single point]
32 | CC1Cc2nc(SCC(=O)NCc3ccco3)n(Cc3ccccc3)c(=O)c2S1 (stereo not drawn) | 12.6 µM [rising, partial curve]
33 | COc1cc2c(cc1NC(=O)c1cncc(Br)c1)oc1ccccc12 | 25.1 µM [rising, single point]
34 | Cc1nc2ccccc2c(=O)n1/N=C/c1c(O)ccc2oc3c(c12)CCCC3 | 7.94 µM [rising, partial curve]
35 | COCCN1C(=O)C(=O)/C(=C(/O)c2ccc(OC(C)C)cc2)C1c1cccnc1 (stereo not drawn) | 3.16 µM [falling, full curve, poor fit]
36 | Cc1ccc([C@@H](O)c2cnc(C)n2Cc2ccccc2)cc1 | 3.98 µM [falling, single point]
37 | Cc1noc(C)c1C(=O)N1CCN(CCc2ccccc2)CC1 | 25.1 µM [rising, single point]
38 | CS(=O)(=O)Nc1cccc(-c2cc(NCc3cccs3)ncn2)c1 | 10 µM [rising, partial curve]
39 | CCOC(=O)c1ccc(N2C(=O)C3C(C2=O)C(C(=O)c2ccc(Cl)cc2)N2CCCC32)cc1 (stereo not drawn) | 3.98 µM [falling, single point]
40 | CSc1ccccc1NC(=O)COc1ccc(S(=O)(=O)N2CCCC2)cc1 | 25.1 µM [rising, single point]
41 | CCOC(=O)c1c(C)n(C)c2ccc(OCC(O)Cn3c(C)nc4ccccc43)cc12 (stereo not drawn) | 3.16 µM [rising, partial curve]
42 | Cc1cccc(CNc2ncnc3ccc(-c4ccc(C(=O)N(C)C)cc4)cc23)c1 | 10 µM [rising, single point]
43 | O=C(CN1CCN(c2ccccn2)CC1)NCCc1ccccc1 | 5.01 µM [falling, single point]
